# Data as given in PubChem BioAssay AID504444 (National Center for Advancing Translational Sciences (NCATS), 2011).
# Where “and” joins values, the source holds several entries; their conditions need not be identical. Equal entries are not always repeated. Hit rate of the full screen: of about 360,000 compounds, about 7,500 (2.1%) were called active. This list was built around the results that the source calls inconclusive (neither active nor inactive); the mix of calls is not that of the screen. The call rests on the fitted dose curve; in most records, active means well fitted inhibition curve with a large enough effect; inconclusive means small, poorly fitted or top-dose-only effect, or effect the other way; inactive means flat fitted curve, though single readings scatter. A potency beside an inconclusive call is a rough fit, not a confirmed value. A structure can be active in one record and inactive in another.
# Assay: Nrf2 qHTS screen for inhibitors; further: nearly all actives have a fitted effect of over 60% in size
# Details: A549 ARE-Fluc reporter, luciferase luminescence, 18-24 h; activity change, negative = inhibition: at 46 µM (top of the series)
# Summary of the method: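 Quantitative HTS in A549 cells stably bearing an antioxidant response element-firefly luciferase construct. Inhibition of Nrf2-driven transcription was scored by luminescence after 18-24 h of compound exposure at 37 °C.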
# On the % scale 0 is the no-effect control and ±100 the full control effect; potency means the concentration at half of the fitted maximal effect.
Structure (SMILES),Potency,"activity change, negative = inhibition"
Cc1ccc(S(=O)(=O)N(C)C)cc1NC(=S)N1CCc2ccccc21,"inconclusive: 20.6 µM [falling, single point]",
Cc1cccc(N2CCN(CCNC(=O)c3cc4c(s3)CS(=O)(=O)C4)CC2)c1C,"inconclusive: 23.1 µM [falling, partial curve, poor fit]",
COCCn1c(=O)[nH]c(=O)c2c1nc(-c1ccc(-c3ccc(Cl)cc3[N+](=O)[O-])o1)n2Cc1ccccc1,"inconclusive: 29.1 µM [falling, single point]",
Fc1ccc(-c2cc(-c3nc(-c4ccccc4)no3)[nH]n2)cc1,"inconclusive: 3.26 µM [activator, single point]",
CCOc1ccc(C(=O)Nc2ccc(Cl)cn2)cc1Cl,"inconclusive: 20.6 µM [activator, partial curve]",
CCCCOc1ccc(C(=O)NCC(=O)N(C)CC(=O)Nc2ccc(N3CCOCC3)cc2)cc1,"inconclusive: 25.9 µM [falling, single point]",
Fc1ccc(Sc2nc(-c3ccccc3)nnc2C(F)(F)F)cc1,inactive,
CS(=O)(=O)c1ccc2nc(NC(=O)c3cc(-c4ccccc4)nn3-c3ccccc3)sc2c1,inactive,
O=C(OCc1c(-c2ccccc2)ncc2ccccc12)c1ccc(Br)cc1,active: 14.6 µM,
Cc1cc(C(=O)COc2cccnc2[N+](=O)[O-])c(C)n1-c1ccccc1,active: 2.91 µM,
COc1ccc(C(=O)Nc2cccc(-c3nc4ncccc4o3)c2C)cc1,"inconclusive: 2.06 µM [falling, partial curve, poor fit]",
CCN1C(=O)N(C)C2(c3ccccc3)N(C)C(=O)N(C)C12c1ccccc1 (stereo unspecified),"inconclusive: 23.1 µM [activator, partial curve, poor fit]",
CCOC(=O)N1CCN(c2nc(-c3cccs3)nc3ccccc23)CC1,"inconclusive: 20.6 µM [falling, partial curve, poor fit]",
Cn1nc(C(=O)NCc2cccc(Cl)c2)c2c1-c1ccccc1SC2,"inconclusive: 18.4 µM [activator, partial curve, poor fit]",
CCCCn1c(=O)[nH]c(=O)c2c1nc(-c1ccc(-c3ccc(F)cc3)o1)n2C,inactive,
CC(=O)Nc1ccc(NC(=O)c2cccc(-c3cc4ccccc4oc3=O)c2)cc1,"inconclusive: 20.6 µM [activator, single point]",
CCOC(=O)c1ccc(NC(=O)CSc2nnc(CNC(=O)c3c(F)cccc3Cl)o2)cc1,"inconclusive: 20.6 µM [falling, partial curve, poor fit]",
COc1ccc(C(=O)Oc2ccc(=O)n(-c3ccccc3)n2)cc1,active: 1.64 µM,
COC(=O)c1c(-c2ccc(SC)cc2)sc2ccccc12,"inconclusive: 6.51 µM [activator, partial curve]",
CC(C)Oc1ccc(C(=O)Nc2ccc(NC(=O)c3ccco3)c(Cl)c2)cc1,"inconclusive: 11.6 µM [falling, partial curve]",
CN(CC(=O)Nc1cccc(F)c1)C(=O)c1cc(-c2ccccc2)nc2ccccc12,inactive,
COc1cccc(-c2csc(NC(=O)Nc3ccccc3)n2)c1,"inconclusive: 20.6 µM [falling, single point]",

Structure (SMILES),Potency,"activity change, negative = inhibition"
O=CNc1c(Cl)cc2c(c1Cl)Cc1cc([N+](=O)[O-])ccc1-2,inactive,
N#Cc1ccc(CSc2ccc(S(=O)(=O)N3CCCCCC3)cn2)cc1,"inconclusive: 29.1 µM [falling, single point]",
O=C(N/C(C(=O)N1CCOCC1)=C(\Sc1ncccn1)c1ccccc1)c1ccccc1,inactive,
Cc1nc2ccc(NC(=O)c3cccs3)cc2c(=O)n1Cc1ccc(Cl)cc1,active: 4.61 µM,
COc1ccc(N2C(=O)CSC23C(=O)N(Cc2ccccc2F)c2ccccc23)cc1Cl (stereo unspecified),"inconclusive: 29.1 µM [falling, single point]",
CCOc1ccc(S(=O)(=O)N2CCN(C(=S)NCc3ccco3)CC2)cc1,inactive,
Cc1c(CC(=O)N2CCCCC2)c(=O)oc2cc3occ(C(C)(C)C)c3cc12,inactive,
Cc1c(C)n(CCO)c2ncnc(Nc3ccc(F)cc3)c12,"inconclusive: 10.3 µM [activator, partial curve, poor fit]",
CCN(CC)CCn1c(/N=C/c2cc(Br)ccc2O)nc2ccccc21,"inconclusive: 25.9 µM [activator, partial curve, poor fit]",
COc1ccc(CNC(=O)c2ccc(-c3nc(CSc4ccc(C)cc4)c(C)o3)cc2)cc1OC,"inconclusive: 18.4 µM [activator, single point]",
CC(C)c1cc(-c2n[nH]c(=S)n2Cc2ccccc2)cs1,"inconclusive: 14.6 µM [falling, partial curve, poor fit]",
CCOC(=O)C1CCN(c2ncnc3c(C)csc23)CC1,"inconclusive: 29.1 µM [activator, single point]",
O=C(NC1CC2CCC1C2)c1ccc(CN2CCOCC2)cc1 (stereo unspecified),"inconclusive: 11.2 µM [activator, partial curve, poor fit]",
CCOC(=O)CN(Cc1ccccc1)C(C(=O)NC1CCCCC1)c1ccc(C)cc1 (stereo unspecified),,inactive: -20.5% [at 9.27 µM]
Cc1ccccc1OCC(=O)NCCS(=O)(=O)N1CCN(c2ccc(F)cc2)CC1,"inconclusive: 5.8 µM [falling, partial curve, poor fit]",
CCOC(=O)C1CCN(C(=O)Cn2c(-c3cccs3)cc3cc(Cl)ccc32)CC1,inactive,
O=C(CCc1nnc(-c2ccc3c(c2)OCO3)o1)N1CCC(c2ccc(F)cc2)C1 (stereo unspecified),"inconclusive: 29.1 µM [activator, single point]",
Nn1c(SCc2cccc3ccccc23)nnc1-c1ccco1,"inconclusive: 16.4 µM [falling, partial curve, poor fit]",
O=C1CC(N2CCC(Cc3ccccc3)CC2)C(=O)N1CCc1ccccc1 (stereo unspecified),"inconclusive: 29.1 µM [falling, single point]",
COC(=O)c1cc(NC(=S)N2CCN(c3ccccn3)CC2)cc(C(=O)OC)c1,"inconclusive: 6.51 µM [activator, single point]",
CCOC(=O)c1cc(S(=O)(=O)NC2CCN(C(=O)OCC)CC2)cn1C,"inconclusive: 20.6 µM [falling, partial curve, poor fit]",
CC(C)(C)OC(=O)NCCCCCc1nnc(SCc2ccc(F)cc2)o1,"inconclusive: 23.1 µM [falling, partial curve, poor fit]",

# A different layout for part of the listing above:
Structure (SMILES) | Potency | activity change, negative = inhibition
Cc1cc(C(=O)COc2cccnc2[N+](=O)[O-])c(C)n1-c1ccccc1 | active: 2.91 µM | 
COc1ccc(C(=O)Nc2cccc(-c3nc4ncccc4o3)c2C)cc1 | inconclusive: 2.06 µM [falling, partial curve, poor fit] | 
CCN1C(=O)N(C)C2(c3ccccc3)N(C)C(=O)N(C)C12c1ccccc1 (stereo unspecified) | inconclusive: 23.1 µM [activator, partial curve, poor fit] | 
CCOC(=O)N1CCN(c2nc(-c3cccs3)nc3ccccc23)CC1 | inconclusive: 20.6 µM [falling, partial curve, poor fit] | 

# The list goes on:

Structure (SMILES),Potency,"activity change, negative = inhibition"
O=C(CN1C(=O)c2ccccc2S1(=O)=O)N1CCc2ccccc21,active: 4.11 µM,
Cc1ccc(S(=O)(=O)c2nc(S(C)(=O)=O)sc2N2CCC3(CC2)OCCO3)cc1,"inconclusive: 20.6 µM [falling, single point]",
COc1cccc(/C=C/C(=O)OCC(=O)Nc2cccc(S(=O)(=O)N3CCCCC3)c2)c1OC,"inconclusive: 0.103 µM [falling, full curve, poor fit]",
O=S(=O)(Nc1ccc(Br)cc1)c1cccc2cccnc12,"inconclusive: 20.6 µM [falling, partial curve]",
Cc1ccc(CNC(=O)CCS(=O)(=O)c2cc3c(cc2Cl)NC(=O)CO3)cc1,inactive and active: 25.9 µM,
Cc1ccc2[nH]c3c(=O)n(CCCN4CCOCC4)cnc3c2c1,inactive,
CC1=C(c2ccc(C)cc2)S(=O)(=O)NC1=NCCCN1CCN(c2cc(C)ccc2C)CC1,"inconclusive: 23.1 µM [falling, single point]",
Cc1ccc(Cl)cc1N1CCN(C(=O)CN2C(=O)COc3ccc(S(=O)(=O)N4CCC(C)CC4)cc32)CC1,inactive,
Cc1ccccc1OCCC(=O)OCC(=O)NNC(=O)c1cccs1,"inconclusive: 32.6 µM [falling, single point]",
COc1ccc(CCNC(=O)/C=C/C(=O)O)cc1OC,"inconclusive: 0.206 µM [falling, full curve, poor fit]",
CC1=C(C(=O)OC2CCCCCC2)C(c2ccc(C)o2)C2=C(CCCC2=O)N1 (stereo unspecified),"inconclusive: 23.1 µM [falling, partial curve, poor fit]",
Fc1ccc(N2CCN(c3cnc4ccccc4n3)CC2)cc1,"inconclusive: 3.66 µM [activator, single point]",
Cc1ccc(NC(=O)CSc2nnc(C)c(=O)n2N)cc1Cl,inactive,
COc1cccc(C(C(=O)NC2CCCC2)N(Cc2ccco2)C(=O)c2ccco2)c1OC (stereo unspecified),"inconclusive: 20.6 µM [falling, single point]",
O=C(O)CCC(=O)N1CCN(S(=O)(=O)c2ccc3ccccc3c2)CC1,inactive,
O=C(N/N=C/c1ccc2c(c1)OCO2)c1ccccn1,"inconclusive: 32.6 µM [falling, single point]",
Nc1cc(=O)[nH]c(=S)n1-c1ccccc1,inactive,
CCCC(=O)NCCCc1nc2ccccc2n1CCC,"inconclusive: 11.6 µM [falling, single point]",
O=[N+]([O-])c1cc2c(c(CSc3ncccn3)c1)OCOC2,"inconclusive: 5.17 µM [activator, full curve]",
Cc1ccc(C)c(COC(=O)c2cc([N+](=O)[O-])ccc2N2CCOCC2)c1,"inconclusive: 29.1 µM [falling, partial curve, poor fit]",
Cc1ccc(C(C)NC(=O)c2cc3cc(Br)ccc3oc2=N)cc1 (stereo unspecified),"inconclusive: 20.6 µM [falling, single point]",
O=C(/C=C/c1ccccc1)NNC(=O)c1ccco1,"inconclusive: 1.84 µM [activator, full curve, poor fit]",
